Measured values as given in article PMC7876108, “Cryo-EM structures of engineered active bc1-cbb3 type CIII2CIV super-complexes and electronic communication between the complexes” (Nature Communications, 2021).

The chains behind the UniProt entries cited, without tags or fusion partners. Where a name states a change or a piece, a line headed by the entry shows the natural chain unless it says otherwise.
UniProt D5ARP5: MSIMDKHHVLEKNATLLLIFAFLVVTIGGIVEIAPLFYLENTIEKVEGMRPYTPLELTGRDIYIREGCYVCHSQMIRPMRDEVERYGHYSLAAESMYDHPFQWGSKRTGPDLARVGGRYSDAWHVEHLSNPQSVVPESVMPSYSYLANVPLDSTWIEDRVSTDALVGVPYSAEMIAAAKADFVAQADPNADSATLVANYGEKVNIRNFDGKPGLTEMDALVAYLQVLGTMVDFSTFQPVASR

Experiments:
[1] = biological target: bipartite bc1-cbb3-type supercomplex (His-tagged bipartite SC, CIII2CIV) (Rhodobacter capsulatus); test: condition: 5-10-fold molar excess of cyt S-cy over 125 ug SC; SEC; 5-10-fold molar excess of purified cyt c (cyt cy or cyt S-cy) mixed with 125 ug purified bipartite SC in 150 uL TBS (50 mM Tris-HCl pH 7.4, 150 mM NaCl, 0.01% DDM); Superose 6 Increase; fractions by SDS-PAGE and silver staining; both purified
[2] = biological target: cbb3-type cytochrome c oxidase (Complex IV, CIV) (Rhodobacter capsulatus); test: SEC; 2-fold molar excess of purified cyt c2 with 300 ug purified CIV, low salt (20 mM Tris-HCl pH 7.4, 1 mM NaCl, 0.01% DDM); Superose 6 Increase; fractions by SDS-PAGE and silver staining; both purified
[3] = biological target: CcoO, subunit of cbb3-type CIV (Rhodobacter capsulatus) (UniProt D5ARP5); test: cross-linking; XL-MS: 300 ug purified cbb3-type CIV with 2-fold molar excess of cyt c2, 20 mM DMTMM, 1 h, room temperature, low salt (20 mM Na-phosphate pH 7.4, 1 mM NaCl, 0.01% DDM); both purified
[4] = biological target: bipartite bc1-cbb3-type supercomplex (His-tagged bipartite SC, CIII2CIV) (Rhodobacter capsulatus); test: SEC; 5-10-fold molar excess of purified cyt c (cyt cy or cyt S-cy) mixed with 125 ug purified bipartite SC in 150 uL TBS (50 mM Tris-HCl pH 7.4, 150 mM NaCl, 0.01% DDM); Superose 6 Increase; fractions by SDS-PAGE and silver staining; both purified
[5] = biological target: bipartite bc1-cbb3-type supercomplex (His-tagged bipartite SC, CIII2CIV) (Rhodobacter capsulatus); test: cryo-EM structure; purified bipartite SC mixed with 5-fold molar excess of purified cyt cy; map SC-2A, 5.2 A; models fitted as rigid bodies; both purified

binding [1]: no binding
B1: cyt S-cy, soluble variant of cyt cy lacking the TMH (domain or fragment, UniProt Q05389 99-199)
chain: GDAKAGEEKFNKTCKACHKIDGKNAVGPHLNGVIGRATATVEGFKYSTAMKNHVGNWTPERLDIYLVSPKAEVPGTKMSFVGLPEAADRANVIAYLNTLPR

binding [2]: binds | binding [3]: binds
B2: cytochrome c2 (natural protein, Rhodobacter capsulatus, UniProt P00094 22-137, looked up)
chain: GDAAKGEKEFNKCKTCHSIIAPDGTEIVKGAKTGPNLYGVVGRTAGTYPEFKYKDSIVALGASGFAWTEEDIATYVKDPGAFLKEKLDDKKAKTGMAFKLAKGGEDVAAYLASVVK
notes: soluble cytochrome c2, Rhodobacter capsulatus; also called cyt c2; source: purified R. capsulatus cyt c2

binding [4]: binds | binding [5]: binds
B3: cytochrome cy, full length (membrane-anchored) (protein, UniProt Q05389 1-199)
chain: MLVKTHITKIGVTLFAVALFYGFIYMLSNSLFATRPATAVAVGADGKALLPSVDEAAMPAKAPAAAAPAAETAEAAAPAEPAAPPPPAYVEVDPATITGDAKAGEEKFNKTCKACHKIDGKNAVGPHLNGVIGRATATVEGFKYSTAMKNHVGNWTPERLDIYLVSPKAEVPGTKMSFVGLPEAADRANVIAYLNTLPR

No constants are given. Whether binding was seen depends on the method and setting. For some assays here: Binding calls can cover weak binding; strength is not graded here. Each block holds one binder with its values, some of them ahead of it.
